Reference: PMC8511627
These are yes or no findings as the source states them, for the method shown. Binding seen in cells or lysates may run through a third protein. Some results given as binding are weak or reduced against the parent protein; the word gives no strength.

Chains of the proteins cited; added tags and fusions are not shown.
UniProt P27695: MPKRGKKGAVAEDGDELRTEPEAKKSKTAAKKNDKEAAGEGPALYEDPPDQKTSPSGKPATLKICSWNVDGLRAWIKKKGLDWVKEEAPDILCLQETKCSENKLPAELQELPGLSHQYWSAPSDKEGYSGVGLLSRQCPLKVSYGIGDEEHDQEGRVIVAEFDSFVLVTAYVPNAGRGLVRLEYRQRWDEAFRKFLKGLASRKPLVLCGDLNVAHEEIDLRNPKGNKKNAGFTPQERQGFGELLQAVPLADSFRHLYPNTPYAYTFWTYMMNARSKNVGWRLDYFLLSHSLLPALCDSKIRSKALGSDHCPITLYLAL
UniProt Q14872: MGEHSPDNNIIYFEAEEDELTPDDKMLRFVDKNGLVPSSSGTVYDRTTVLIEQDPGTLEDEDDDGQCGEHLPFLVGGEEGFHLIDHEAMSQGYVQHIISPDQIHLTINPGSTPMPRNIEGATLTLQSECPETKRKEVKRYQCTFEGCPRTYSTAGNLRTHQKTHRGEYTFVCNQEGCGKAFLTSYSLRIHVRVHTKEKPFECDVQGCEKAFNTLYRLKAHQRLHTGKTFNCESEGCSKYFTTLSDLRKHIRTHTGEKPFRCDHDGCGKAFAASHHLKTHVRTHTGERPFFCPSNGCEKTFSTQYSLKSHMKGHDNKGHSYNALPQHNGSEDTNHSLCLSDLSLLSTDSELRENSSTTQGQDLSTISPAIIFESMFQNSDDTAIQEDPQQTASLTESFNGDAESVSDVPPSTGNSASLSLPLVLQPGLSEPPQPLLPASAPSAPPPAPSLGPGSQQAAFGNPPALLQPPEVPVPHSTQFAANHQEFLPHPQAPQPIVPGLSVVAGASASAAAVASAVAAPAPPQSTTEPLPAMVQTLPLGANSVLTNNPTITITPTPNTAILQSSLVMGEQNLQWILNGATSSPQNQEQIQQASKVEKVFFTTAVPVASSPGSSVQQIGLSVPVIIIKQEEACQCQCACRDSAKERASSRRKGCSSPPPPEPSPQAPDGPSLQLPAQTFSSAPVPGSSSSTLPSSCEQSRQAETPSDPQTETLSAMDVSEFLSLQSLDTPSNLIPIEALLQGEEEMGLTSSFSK

Target: apurinic apyrimidinic endonuclease/redox effector factor 1 (APE/Ref-1) (human (all cell lines of the paper are human; the cells of the co-IP are not named)) (UniProt P27695)
Experiment: co-IP; co-immunoprecipitation 'with different treatments'; cells, precipitating antibody and buffer not told

binding: binds
Substance: Metal-regulatory transcription factor-1 (MTF-1) (from UniProt Q14872 1-753)
